# Measured values from EP0596449A2, “Serotonin receptor antagonists for treating myocardial ischemia” (E.R. SQUIBB & SONS, INC., priority 1992, dated 1994).
# Some of these results come from one statement about several compounds together.
# System: alpha, Adrenoceptors
# Assay: Methoxamine-induced contraction in rat aortic rings (alpha1 blocking potency)
# Conditions: 45 minute incubation; no effect below; maximal effects reduced; Figures 5C and 5D
# Experimental: In order to determine the alpha1 blocking potency of cinanserin, ketanserin and LY 53857, their effect on methoxamine induced aortic constriction was determined. Male Sprague-Dawley rats were sacrificed using C02. Aortic rings (3 mm in width) were cut, denuded of endothelium by gently rolling the rings on moistened filter paper, and mounted on stainless steel hooks in 20 mL muscle chambers containing oxygenated physiological salt solution (PSS) of the following composition (in mM): 118.4 NaCI, 4.7 KCI, 1.2 MgS04, 1.2 KH2P04, 1.9 CaC12, 25.0 NaHC03, 10.1 D-glucose, and 0.01 mM Na2EDTA maintained at 37 °C. The hooks were connected to Grass FT03C transducers for recording of isometric force development. The rings were stretched to 2 g preload during the equilibration period. During equilibration the rings were periodically stimulated with 24 mM KCI to determine contractility. The effectiveness of endothelial removal was confirmed by the absence of relaxation by 1 µM acetylcholine of a contraction in response to 0.01 µM phenylephrine.
# Various concentrations of the test compounds were then added to individual baths and allowed a 45 minute incubation before cumulative concentration response curves for methoxamine (1 nM-30 /1.M) were obtained. Solvent controls were run in parallel. […]
smiles,measurement,value
"CN(C)CCCSc1ccccc1NC(=O)/C=C/c1ccccc1 [Cinanserin, cinanserin]",concentrations at which an effect on methoxamine-induced contractions (significant inhibition) was reached,30 to 100 µM
